PubChem BioAssay AID686938, Drosophila RNAi Screening Center, 2013
Aim: 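Looking for CRAC channel components and the factors controlling them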 (primary screen). Cell system: Drosophila S2R+ cells. Reagents: long dsRNA against Drosophila genes, about 0.25 µg dsRNA per well, roughly 10,000 cells. Duration: 5 days of knock-down before the calcium assay. Challenge: thapsigargin (SERCA pump blocker) to empty calcium stores; entry signal taken 4 min after adding it. Read-out: 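Per-well fluo-4 fluorescence in two replicates, unnormalised, measured in resting cells and 4 min after store depletion by the SERCA blocker thapsigargin; ratio of the two present in few wells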. Direction: calcium entry signal: higher = stronger calcium signal after store depletion; entry to resting ratio: higher = more calcium entry relative to resting level; resting calcium signal: higher = higher resting calcium signal. Call rule: 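Hit if the duplicate-averaged plate z-score for entry over resting signal is under −3; wells with weak total dye signal (Fmax z < −2) or more than 5 off-targets removed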. Meaning of the calls: active = strongly reduced calcium entry; inactive = no strong reduction.
In all, the deposit lists about 23,000 reagents; shown is a random part of those that have a named target and a result. Of all reagents, 75 (0.33%) are marked active. 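Raw plate signals without normalisation; calls rest on plate z-scores that were not deposited; ratio present for only 364 wells.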 A plus sign joins genes that one reagent is predicted to hit. No sequences are given here. Not stated in the record: the dose of the treatment.

Target gene	DRSC id	calcium entry signal, replicate 1 (fluorescence units)	calcium entry signal, replicate 2 (fluorescence units)	entry to resting ratio	resting calcium signal, replicate 1 (fluorescence units)	resting calcium signal, replicate 2 (fluorescence units)	activity call
CG13203	DRSC06327	2.70e7	3.94e7		1.40e7	1.83e7	inactive
Galphas (G protein alpha subunit s)	DRSC04616	3.15e7			1.49e7		inactive
RfC3 (Replication factor C subunit 3)	DRSC03411	3.23e7	3.74e7		1.82e7	1.85e7	inactive
Nup107 (Nucleoporin 107kD)	DRSC01999	1.44e7	2.29e7		8.33e6	1.17e7	inactive
CG31601	DRSC03678	2.83e7	5.59e7		1.48e7	2.22e7	inactive
Ipk2 (Inositol phosphate kinase 2)	DRSC00357	3.60e7	4.42e7		1.68e7	1.94e7	inactive
zld (zelda)	DRSC19486	4.97e7	3.81e7		2.25e7	1.59e7	inactive
zld (zelda)	DRSC21721	3.30e7	3.34e7		1.67e7	1.53e7	inactive
zld (zelda)	DRSC23098	4.70e7	4.29e7		2.01e7	1.64e7	inactive
udd (under-developed)	DRSC06720	2.84e7	2.93e7		1.35e7	1.34e7	inactive
CG5498	DRSC11608	4.36e7	4.48e7		2.11e7	3.00e7	inactive
CG30287	DRSC03875	3.67e7	7.08e7		1.66e7	2.77e7	inactive
CG34452	DRSC09387	2.92e7	2.87e7		1.50e7	1.35e7	inactive
CG34144 (retired record)	DRSC18885	3.43e7	3.29e7		1.52e7	1.48e7	inactive
CG34144 (retired record)	DRSC19380	4.03e7	4.31e7		1.88e7	1.94e7	inactive
CG34144 (retired record)	DRSC19480	4.33e7	6.30e7		1.98e7	2.83e7	inactive
CG34144 (retired record)	DRSC23284	3.94e7	4.68e7		1.90e7	1.97e7	inactive
mfr (misfire)	DRSC10543	3.02e7	5.08e7		1.49e7	2.22e7	inactive
CG30291	DRSC03842	3.46e7	6.16e7		1.61e7	2.53e7	inactive
CG33111	DRSC14208	4.51e7	6.04e7		2.10e7	2.51e7	inactive
CG33111	DRSC14444	5.41e7	6.47e7		2.37e7	2.63e7	inactive
PpY-55A (Protein phosphatase Y at 55A)	DRSC07513	3.16e7	3.35e7		1.36e7	1.61e7	inactive
PpY-55A (Protein phosphatase Y at 55A)	DRSC23328	4.07e7	3.15e7		2.27e7	1.46e7	inactive
Syn1 + CG7370	DRSC22768	4.52e7	3.22e7		2.54e7	1.51e7	inactive
Pfas (Phosphoribosylformylglycinamidine synthase)	DRSC03480	4.52e7			2.42e7		inactive
Nlg1 (Neuroligin 1)	DRSC12485	3.63e7	3.91e7		1.73e7	2.07e7	inactive
Nlg1 (Neuroligin 1)	DRSC12532	4.15e7	3.21e7		2.06e7	1.60e7	inactive
Nlg1 (Neuroligin 1)	DRSC12533	4.61e7	3.69e7		2.23e7	1.83e7	inactive
Nlg1 (Neuroligin 1)	DRSC12539	4.29e7	3.01e7		2.11e7	1.52e7	inactive
CG14929	DRSC02411	3.34e7	4.31e7		1.68e7	1.99e7	inactive
Gs1 (Glutamine synthetase 1)	DRSC00753	3.65e7			1.76e7		inactive
CG12769	DRSC06167	3.49e7	3.01e7		1.46e7	1.43e7	inactive
CG9630	DRSC16527	2.40e7	2.77e7		1.09e7	1.40e7	inactive
Gk1 (Glycerol kinase 1)	DRSC08533	3.79e7	3.56e7		1.84e7	1.78e7	inactive
Gk1 (Glycerol kinase 1)	DRSC08534	3.39e7	4.71e7		1.75e7	1.99e7	inactive
Amacr (Alpha-methylacyl-CoA racemase)	DRSC03198	2.28e7			1.30e7		inactive
ninaC (neither inactivation nor afterpotential C)	DRSC03579	4.00e7			2.14e7		inactive
aln (allnighter)	DRSC08240	1.88e7	2.74e7		1.06e7	1.27e7	inactive
myd (mayday)	DRSC14762	3.35e7	2.78e7		1.86e7	1.51e7	inactive
myd (mayday)	DRSC15512	3.85e7	3.88e7		4.34e7	1.63e7	inactive
mbc (myoblast city)	DRSC16995	4.99e7	5.76e7		2.33e7	2.43e7	inactive
pot (papillote)	DRSC19850	2.57e7	2.99e7		1.24e7	1.38e7	inactive
ssp2 (short spindle 2)	DRSC11052	2.96e7	3.76e7		1.42e7	2.56e7	inactive
CG17597	DRSC02630	5.57e7			2.64e7		inactive
nompA (no mechanoreceptor potential A)	DRSC06329	2.84e7	3.63e7		1.55e7	1.57e7	inactive
CG2680	DRSC18466	4.54e7	4.79e7	2	2.28e7	2.02e7	inactive
CG7379	DRSC16237	4.44e7	4.35e7		2.15e7	1.99e7	inactive
mei-217 + mei-218	DRSC20349	4.56e7	2.77e7		2.34e7	1.32e7	inactive
CG5023	DRSC15697	3.74e7	4.29e7		4.82e7	1.90e7	inactive
ND-75 (NADH dehydrogenase (ubiquinone) 75 kDa subunit)	DRSC18686	3.58e7	5.07e7		1.59e7	2.15e7	inactive
Rab9Fb (Rab at 9Fb)	DRSC19854	3.63e7	4.37e7		1.75e7	1.93e7	inactive
Cad96Ca (Cadherin 96Ca)	DRSC14220	4.38e7	6.27e7		2.33e7	2.79e7	inactive
Cad96Ca (Cadherin 96Ca)	DRSC16693	4.27e7	6.90e7		2.15e7	2.84e7	inactive
alpha-Catr (alpha-catenin related)	DRSC04669	3.94e7	3.92e7		2.02e7	1.87e7	inactive
RhoGAP100F (Rho GTPase activating protein at 100F)	DRSC15409	2.93e7	3.46e7		1.29e7	1.68e7	inactive
eIF3e (eukaryotic translation initiation factor 3 subunit e)	DRSC11199	2.11e7	3.30e7		1.54e7	2.20e7	inactive
CG5466	DRSC15808	1.69e7	2.11e7		1.18e7	1.24e7	inactive
CG5466	DRSC23002	3.87e7	4.47e7		1.77e7	1.81e7	inactive
